Molecules are shown by their SMILES.

The chains behind the UniProt entries cited, without tags or fusion partners. Where a name states a change or a piece, a line headed by the entry shows the natural chain unless it says otherwise.
UniProt Q06187: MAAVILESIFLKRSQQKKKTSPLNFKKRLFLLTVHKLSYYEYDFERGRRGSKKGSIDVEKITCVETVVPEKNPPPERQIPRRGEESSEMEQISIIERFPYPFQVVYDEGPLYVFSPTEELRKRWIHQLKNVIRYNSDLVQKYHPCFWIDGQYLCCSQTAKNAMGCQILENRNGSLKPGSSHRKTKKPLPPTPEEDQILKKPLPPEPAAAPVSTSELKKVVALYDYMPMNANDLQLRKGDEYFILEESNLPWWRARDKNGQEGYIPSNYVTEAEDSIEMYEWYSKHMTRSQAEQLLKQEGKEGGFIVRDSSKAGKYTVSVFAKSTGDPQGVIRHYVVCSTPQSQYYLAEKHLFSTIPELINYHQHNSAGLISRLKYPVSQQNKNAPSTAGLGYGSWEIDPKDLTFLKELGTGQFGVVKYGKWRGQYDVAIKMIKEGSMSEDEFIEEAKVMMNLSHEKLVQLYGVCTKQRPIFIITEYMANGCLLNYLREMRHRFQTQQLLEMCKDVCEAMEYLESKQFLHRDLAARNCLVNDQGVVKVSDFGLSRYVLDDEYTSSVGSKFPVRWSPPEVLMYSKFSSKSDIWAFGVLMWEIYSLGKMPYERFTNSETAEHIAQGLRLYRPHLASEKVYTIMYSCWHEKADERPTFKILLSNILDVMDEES

The record followed here is patent US20160159774A1 (Celgene Avilomics Research, Inc., priority 2014, published 2016).

For one test, the target named is T1, activated BTK enzyme (Homo sapiens, UniProt Q06187).
T1 construct: purchased Life Technologies PV3363
The experiment in a line: Omnia assay for potency assessment against BTK. The format is biochemical. To be noted: BTK inhibition assay; [BTK]=5 nM, [ATP]=40 μM, [Y5-Sox]=10 μM. From the text: Omnia Assay Protocol for Potency Assessment Against BTK
The protocol below describes an assay to measure potency of compounds against the activated BTK enzyme. The mechanics of the assay platform are best described by the vendor (Life Technologies, Carlsbad, Calif.) on their website at the following URLs: www.lifetechnologies.com/us/en/home/life-science/drug-discovery/target-and-lead-identification-and-validation/kinasebiology/kinase-activity-assays/omnia-kinase-assays/omnia-kinase-principle.html and tools.lifetechnologies.com/content/sfs/manuals/omnia_kinase_assay_man.pdf
Briefly, 10× stocks of BTK (PV3363) from Life Technologies, 1.13×ATP (AS00lA) and Sox conjugated peptide substrates, Y5-Sox, (KZN305l) were prepared in 1× kinase reaction buffer consisting of 20 mM Tris, pH 7.5, 5 mM MgCl2, 1 mM EGTA, 5 mM (3-glycerophosphate, 5% glycerol (10× stock, KB002A) and 0.2 mM DTT (DS00lA). 5 μL of each enzyme were pre-incubated in a Corning (#3574) 384-well, white, non-binding surface microtiter plate (Corning, N.Y.) for 30 min. at room temperature with a 0.5 μL volume of 50% DMSO or serially diluted compounds prepared in 50% DMSO. Kinase reactions were started with the addition of […] of the ATP/Tyr-Sox peptide substrate Y5 mix and monitored every 71 seconds for 60 minutes at λex360/λem485 in a Synergy4 plate reader from BioTek (Winooski, Vt.). […]

Test [1] addresses T2, BTK in Ramos human Burkitt lymphoma cells (Homo sapiens, UniProt Q06187).
T2 construct: Compounds of this invention were assayed in Ramos human Burkitt lymphoma cells; endogenous in cells; host or cells: Ramos human Burkitt lymphoma cells
The experiment in a line: BTK Ramos cellular assay (BTK occupancy). The format is cell-based. The following applies: concentration producing 50% occupancy of BTK, 1 hour incubation with compound. On the procedure:
BTK activity in Ramos cells, in the presence of a compound of the invention, can be measured by 3 different methods: 1) inhibition of autophosphorylation of BTK; 2) inhibition of phosphorylation of the immediate BTK surrogate PLCγ2; and 3) BTK occupancy. […] In this instance, BTK occupancy was chosen and is described below.
Compounds of this invention were assayed in Ramos human Burkitt lymphoma cells. Ramos cells were grown in suspension in T175 flasks, spun down, resuspended to a concentration of 2×10^6 cells per mL in serum-free media and incubated for 1 hour. Compound was added to Ramos cells to a final concentration of 500, 166.7, 55.6, 18.5, 6.2, 2.1, and 0.7 nM. Ramos cells were incubated with compound for 1 hour, washed with PBS and lysed in 1004 of BioRad lysis Buffer. Cell lysates were incubated with a biotinylated covalent probe (compound 1-215 disclosed in U.S. published application number 2010/0029610, incorporated by reference in its entirety) at a final concentration of 1 μM in a PBS, 0.05% Tween-20, 1% BSA solution for 1 h at room temperature. […] The ELISA was developed with addition of tetramethyl benzidine (TMB) followed by Stop Solution and read at OD 450 nm. […] Uninhibited Btk detected from samples was normalized to μg total protein as determined by BCA protein analysis (Pierce Cat. 23225). […]

`C=CC(=O)N1CCC[C@@H](Nc2nc(Nc3ccc4c(c3)CN(C3CC3)CCC4)ncc2F)C1` [Compound I-54, (R)-1-(3-(2-(2-Cyclopropyl-2,3,4,5-tetrahydro-1H-benzo[c]azepin-8-ylamino)-5-fluoropyrimidin-4-ylamino)piperidin-1-yl)prop-2-en-1-one]: at activated BTK enzyme, the IC50 is less than 10 nM. Also, the EC50 in test [1] was 10 to 100 nM.
